Reference: paper PMC7911381
No constants are given. Whether binding was seen depends on the method and setting. Binding seen in cells or lysates may run through a third protein. Some entries that bind do so weakly or less than the wild type.

The chains behind the UniProt entries cited, without tags or fusion partners. Residues count along the entry.
UniProt Q07021, residues 50-282: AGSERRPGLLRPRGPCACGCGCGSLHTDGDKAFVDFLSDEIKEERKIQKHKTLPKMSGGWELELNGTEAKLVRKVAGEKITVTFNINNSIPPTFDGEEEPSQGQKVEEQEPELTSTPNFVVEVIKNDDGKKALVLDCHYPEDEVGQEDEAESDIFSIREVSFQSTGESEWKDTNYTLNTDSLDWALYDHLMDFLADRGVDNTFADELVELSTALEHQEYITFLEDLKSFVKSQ
UniProt P16794: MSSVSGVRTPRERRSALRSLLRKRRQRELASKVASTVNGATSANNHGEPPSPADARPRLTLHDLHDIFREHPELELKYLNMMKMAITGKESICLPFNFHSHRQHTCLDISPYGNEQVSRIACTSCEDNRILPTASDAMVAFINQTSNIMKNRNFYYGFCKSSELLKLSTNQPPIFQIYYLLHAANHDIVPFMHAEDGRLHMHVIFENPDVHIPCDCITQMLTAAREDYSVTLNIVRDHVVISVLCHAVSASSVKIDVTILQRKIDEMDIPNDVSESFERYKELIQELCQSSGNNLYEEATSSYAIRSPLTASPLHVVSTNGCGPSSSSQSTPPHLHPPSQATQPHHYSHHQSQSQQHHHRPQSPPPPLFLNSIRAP

Legend:
Assay in all cases: co-IP
[1] = target: PKCα-Flag (UniProt P17252)
[2] = target: p32(50-282)-Flag (UniProt Q07021)
[3] = target: T1, emerin (UniProt P50402)
T1 sequence: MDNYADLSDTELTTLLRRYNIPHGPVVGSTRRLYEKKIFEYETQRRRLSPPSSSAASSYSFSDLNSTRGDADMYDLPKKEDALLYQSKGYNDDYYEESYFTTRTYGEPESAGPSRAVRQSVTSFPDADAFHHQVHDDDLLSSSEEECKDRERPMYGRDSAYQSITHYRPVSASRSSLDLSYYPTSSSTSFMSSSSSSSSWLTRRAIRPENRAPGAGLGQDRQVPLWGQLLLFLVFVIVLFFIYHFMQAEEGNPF

[4] = target: HCMV pUL53-Flag (human cytomegalovirus (HCMV)) (UniProt P16794)

Measured: binding

HCMV pUL50-HA (non-mutated parental protein) (from UniProt P16791 1-397)
binds: [1] | [2] | [3] | [4]
